Results are given in words; binding and its absence hold for the method and conditions named. Binding seen in cells or lysates may run through a third protein. Some results given as binding are weak or reduced against the parent protein; the word gives no strength.
What was measured:
Assay in all cases: co-IP; 293T cells co-transfected for 48 h; EBC lysis buffer (50 mM Tris-HCl, 120 mM NaCl, 0.5% NP-40); 500 ug whole cell lysate with mouse anti-FLAG agarose beads overnight at 4°C, five washes; Western blot
[1] = target: FLAG tagged chHDAC2-S407/411A (chicken) (UniProt P56519)
[2] = target: FLAG tagged chHDAC2-S407/411D (chicken) (UniProt P56519)
[3] = target: FLAG tagged chHDAC2-S407A (chicken) (UniProt P56519)
[4] = target: FLAG tagged chHDAC2-S407D (chicken) (UniProt P56519)
[5] = target: FLAG tagged chHDAC2-S411A (chicken) (UniProt P56519)
[6] = target: FLAG tagged chHDAC2-S411D (chicken) (UniProt P56519)
[7] = target: FLAG tagged wild type chicken HDAC1 (chicken) (UniProt P56517)
[8] = target: FLAG tagged wild type chicken HDAC2 (chicken) (UniProt P56519)
[9] = target: FLAG tagged chHDAC1-S406/410/415A (chicken) (UniProt P56517)
[10] = target: FLAG tagged chHDAC1-S406/410/415D (chicken) (UniProt P56517)
[11] = target: FLAG tagged chHDAC1-S410D (chicken) (UniProt P56517)

The chains behind the UniProt entries cited, without tags or fusion partners. Where a name states a change or a piece, a line headed by the entry shows the natural chain unless it says otherwise. A line that says so, or that is headed by a name, gives the form on record, which may keep a tag or linker.
UniProt P56519: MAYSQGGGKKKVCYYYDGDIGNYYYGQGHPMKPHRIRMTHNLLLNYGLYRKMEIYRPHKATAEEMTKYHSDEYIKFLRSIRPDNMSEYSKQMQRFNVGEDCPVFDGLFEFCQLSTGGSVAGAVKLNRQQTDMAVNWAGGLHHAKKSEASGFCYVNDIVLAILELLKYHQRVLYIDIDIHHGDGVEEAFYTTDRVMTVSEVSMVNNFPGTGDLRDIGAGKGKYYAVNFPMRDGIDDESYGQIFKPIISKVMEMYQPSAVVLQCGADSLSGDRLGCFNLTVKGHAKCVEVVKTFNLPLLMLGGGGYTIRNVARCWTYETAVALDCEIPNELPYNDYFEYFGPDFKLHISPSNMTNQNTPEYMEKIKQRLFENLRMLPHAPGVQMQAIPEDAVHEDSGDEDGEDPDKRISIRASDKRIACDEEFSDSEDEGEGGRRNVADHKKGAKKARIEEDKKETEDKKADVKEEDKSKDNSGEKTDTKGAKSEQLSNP
FLAG tagged chHDAC2-S407/411A (P56519, form named): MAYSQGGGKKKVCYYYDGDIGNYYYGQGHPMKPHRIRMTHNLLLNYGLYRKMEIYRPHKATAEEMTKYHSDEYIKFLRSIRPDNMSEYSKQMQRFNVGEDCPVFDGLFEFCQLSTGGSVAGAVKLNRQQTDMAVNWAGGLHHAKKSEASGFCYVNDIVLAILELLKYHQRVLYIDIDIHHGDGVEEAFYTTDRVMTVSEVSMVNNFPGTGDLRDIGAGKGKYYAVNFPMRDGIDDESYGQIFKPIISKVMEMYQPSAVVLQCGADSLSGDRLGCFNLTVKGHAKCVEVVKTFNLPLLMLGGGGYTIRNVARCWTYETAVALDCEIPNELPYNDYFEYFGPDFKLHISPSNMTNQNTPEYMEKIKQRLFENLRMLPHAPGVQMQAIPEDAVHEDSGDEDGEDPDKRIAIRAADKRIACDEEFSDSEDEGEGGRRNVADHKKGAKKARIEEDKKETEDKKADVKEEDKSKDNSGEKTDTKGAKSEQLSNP
FLAG tagged chHDAC2-S407/411D (P56519, form named): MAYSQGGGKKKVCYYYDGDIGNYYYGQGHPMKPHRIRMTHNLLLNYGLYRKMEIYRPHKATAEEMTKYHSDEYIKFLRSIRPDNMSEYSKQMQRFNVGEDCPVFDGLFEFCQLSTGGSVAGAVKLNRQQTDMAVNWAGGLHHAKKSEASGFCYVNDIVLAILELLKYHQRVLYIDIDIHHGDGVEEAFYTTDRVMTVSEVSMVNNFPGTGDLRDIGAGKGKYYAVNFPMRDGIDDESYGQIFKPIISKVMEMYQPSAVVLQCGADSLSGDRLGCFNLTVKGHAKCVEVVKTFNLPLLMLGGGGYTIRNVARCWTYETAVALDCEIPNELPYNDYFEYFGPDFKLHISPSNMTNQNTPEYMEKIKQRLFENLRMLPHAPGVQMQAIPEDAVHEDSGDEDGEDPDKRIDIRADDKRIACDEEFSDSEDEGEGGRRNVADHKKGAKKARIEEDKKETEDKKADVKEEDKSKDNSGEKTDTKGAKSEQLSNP
UniProt P56517: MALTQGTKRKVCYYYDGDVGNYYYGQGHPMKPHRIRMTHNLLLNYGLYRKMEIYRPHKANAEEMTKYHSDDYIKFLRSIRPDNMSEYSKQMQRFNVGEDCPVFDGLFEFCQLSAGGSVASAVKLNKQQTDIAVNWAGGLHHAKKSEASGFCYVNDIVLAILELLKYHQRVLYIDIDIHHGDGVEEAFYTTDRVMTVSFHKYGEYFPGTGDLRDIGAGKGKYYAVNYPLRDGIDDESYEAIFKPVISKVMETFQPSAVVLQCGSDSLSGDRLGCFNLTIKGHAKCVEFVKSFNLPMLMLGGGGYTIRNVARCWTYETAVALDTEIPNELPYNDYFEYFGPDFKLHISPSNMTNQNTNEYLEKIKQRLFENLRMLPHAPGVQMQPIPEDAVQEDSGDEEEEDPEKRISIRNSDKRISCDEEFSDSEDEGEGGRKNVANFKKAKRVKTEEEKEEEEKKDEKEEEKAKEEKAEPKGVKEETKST
FLAG tagged chHDAC1-S406/410/415A (P56517, form named): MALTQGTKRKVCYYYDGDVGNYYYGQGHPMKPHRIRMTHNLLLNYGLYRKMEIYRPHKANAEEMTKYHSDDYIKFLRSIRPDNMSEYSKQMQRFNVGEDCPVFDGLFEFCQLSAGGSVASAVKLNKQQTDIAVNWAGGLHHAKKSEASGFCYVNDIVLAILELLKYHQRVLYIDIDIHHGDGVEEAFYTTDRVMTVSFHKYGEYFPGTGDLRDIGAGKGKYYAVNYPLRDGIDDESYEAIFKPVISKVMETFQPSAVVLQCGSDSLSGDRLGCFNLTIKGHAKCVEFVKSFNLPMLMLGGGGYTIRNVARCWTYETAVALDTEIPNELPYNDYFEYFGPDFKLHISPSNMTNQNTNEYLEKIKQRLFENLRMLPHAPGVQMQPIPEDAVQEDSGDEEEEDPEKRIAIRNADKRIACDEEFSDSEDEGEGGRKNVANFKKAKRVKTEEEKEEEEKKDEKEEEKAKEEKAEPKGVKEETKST
FLAG tagged chHDAC1-S406/410/415D (P56517, form named): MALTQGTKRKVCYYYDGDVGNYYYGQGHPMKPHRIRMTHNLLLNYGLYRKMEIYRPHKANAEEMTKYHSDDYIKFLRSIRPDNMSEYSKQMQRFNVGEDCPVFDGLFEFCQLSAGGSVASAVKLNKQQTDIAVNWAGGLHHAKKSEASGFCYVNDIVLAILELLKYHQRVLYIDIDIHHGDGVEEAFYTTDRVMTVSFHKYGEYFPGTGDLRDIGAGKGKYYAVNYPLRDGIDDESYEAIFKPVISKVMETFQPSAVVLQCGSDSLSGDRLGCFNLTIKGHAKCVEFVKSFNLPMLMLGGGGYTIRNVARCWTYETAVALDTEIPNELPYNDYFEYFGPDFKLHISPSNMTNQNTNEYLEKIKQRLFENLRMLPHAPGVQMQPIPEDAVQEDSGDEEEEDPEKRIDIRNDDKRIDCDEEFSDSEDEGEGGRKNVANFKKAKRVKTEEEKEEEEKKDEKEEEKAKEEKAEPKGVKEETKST

Row | Substance | binding [1] | binding [2] | binding [3] | binding [4] | binding [5] | binding [6] | binding [7] | binding [8] | binding [9] | binding [10] | binding [11]
1 | HA tagged wild type chicken histone deacetylase 1 (unmodified) (from UniProt P56517 1-480) (enzyme) | binds | binds | binds | binds | binds | binds | binds | binds | – | – | –
2 | HA tagged wild type chicken histone deacetylase 2 (unmodified) (from UniProt P56519 1-488) (enzyme) | – | – | – | – | – | – | binds | binds | binds weakly | binds | binds

From PMC7920345
